According to publication PMC4179493:
No constants are given. Whether binding was seen depends on the method and setting. In cells and extracts the contact can be indirect. A yes stands for co-enrichment or nearness to the bait. Other partners may have been found.

Target: GFP–RCC2 (UniProt Q9P258)
Test: affinity purification with mass spectrometry; SILAC: HEK-293T cells in R0K0 (GFP) or R6K4 (GFP–RCC2) media, GFP-Trap, LTQ-Orbitrap Velos

## endogenous Coro1C (293T) (from UniProt Q9ULV4 1-474)
  binding: binds
